Assay results as given in the supplement of paper PMC6411743.
± gives the standard deviation of the averaged measurements. This is one part of the list.

By UniProt entry, the sequences of proteins in these tests, tags left out. Where a name states a change or a piece, a line headed by the entry shows the natural chain unless it says otherwise.
UniProt Q8WU79: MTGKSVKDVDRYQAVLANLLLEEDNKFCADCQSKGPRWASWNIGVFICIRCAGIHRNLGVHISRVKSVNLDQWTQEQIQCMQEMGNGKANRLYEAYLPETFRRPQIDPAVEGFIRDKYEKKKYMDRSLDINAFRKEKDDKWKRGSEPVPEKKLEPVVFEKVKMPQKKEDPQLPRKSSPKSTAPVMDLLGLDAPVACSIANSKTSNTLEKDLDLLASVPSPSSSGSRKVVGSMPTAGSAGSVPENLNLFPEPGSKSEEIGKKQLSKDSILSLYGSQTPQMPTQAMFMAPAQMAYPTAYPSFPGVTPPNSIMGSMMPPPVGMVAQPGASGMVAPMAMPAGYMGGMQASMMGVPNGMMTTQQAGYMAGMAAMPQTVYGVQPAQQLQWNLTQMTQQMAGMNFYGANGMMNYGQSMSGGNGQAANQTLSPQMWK
UniProt Q8IY37: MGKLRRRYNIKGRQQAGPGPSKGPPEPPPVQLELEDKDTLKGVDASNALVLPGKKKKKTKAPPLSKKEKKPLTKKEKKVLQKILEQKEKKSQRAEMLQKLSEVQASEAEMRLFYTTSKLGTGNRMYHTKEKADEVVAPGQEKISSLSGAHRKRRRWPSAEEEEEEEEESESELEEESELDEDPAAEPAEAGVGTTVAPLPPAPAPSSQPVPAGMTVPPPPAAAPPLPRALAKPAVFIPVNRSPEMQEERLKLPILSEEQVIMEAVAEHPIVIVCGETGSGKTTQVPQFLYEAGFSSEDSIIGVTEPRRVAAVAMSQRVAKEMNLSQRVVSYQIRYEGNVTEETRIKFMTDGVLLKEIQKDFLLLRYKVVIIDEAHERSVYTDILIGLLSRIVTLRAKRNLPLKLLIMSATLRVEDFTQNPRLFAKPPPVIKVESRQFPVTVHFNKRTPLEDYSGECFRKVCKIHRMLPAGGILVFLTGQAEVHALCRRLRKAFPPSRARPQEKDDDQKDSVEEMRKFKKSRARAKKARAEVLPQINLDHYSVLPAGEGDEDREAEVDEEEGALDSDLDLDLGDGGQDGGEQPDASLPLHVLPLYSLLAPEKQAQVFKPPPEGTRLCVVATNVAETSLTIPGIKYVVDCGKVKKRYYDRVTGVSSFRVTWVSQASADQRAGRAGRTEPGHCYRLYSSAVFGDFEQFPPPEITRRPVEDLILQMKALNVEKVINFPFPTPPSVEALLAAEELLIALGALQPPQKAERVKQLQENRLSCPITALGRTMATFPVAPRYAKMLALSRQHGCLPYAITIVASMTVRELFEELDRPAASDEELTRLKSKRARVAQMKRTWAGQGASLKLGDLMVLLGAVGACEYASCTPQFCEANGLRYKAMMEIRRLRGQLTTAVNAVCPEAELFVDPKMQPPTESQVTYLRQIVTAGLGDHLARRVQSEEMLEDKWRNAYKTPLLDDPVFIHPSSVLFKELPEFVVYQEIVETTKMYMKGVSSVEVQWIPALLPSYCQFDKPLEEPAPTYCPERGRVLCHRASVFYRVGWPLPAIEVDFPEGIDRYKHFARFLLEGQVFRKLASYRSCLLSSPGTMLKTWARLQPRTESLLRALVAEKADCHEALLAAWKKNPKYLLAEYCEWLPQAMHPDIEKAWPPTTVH
UniProt Q8TED0: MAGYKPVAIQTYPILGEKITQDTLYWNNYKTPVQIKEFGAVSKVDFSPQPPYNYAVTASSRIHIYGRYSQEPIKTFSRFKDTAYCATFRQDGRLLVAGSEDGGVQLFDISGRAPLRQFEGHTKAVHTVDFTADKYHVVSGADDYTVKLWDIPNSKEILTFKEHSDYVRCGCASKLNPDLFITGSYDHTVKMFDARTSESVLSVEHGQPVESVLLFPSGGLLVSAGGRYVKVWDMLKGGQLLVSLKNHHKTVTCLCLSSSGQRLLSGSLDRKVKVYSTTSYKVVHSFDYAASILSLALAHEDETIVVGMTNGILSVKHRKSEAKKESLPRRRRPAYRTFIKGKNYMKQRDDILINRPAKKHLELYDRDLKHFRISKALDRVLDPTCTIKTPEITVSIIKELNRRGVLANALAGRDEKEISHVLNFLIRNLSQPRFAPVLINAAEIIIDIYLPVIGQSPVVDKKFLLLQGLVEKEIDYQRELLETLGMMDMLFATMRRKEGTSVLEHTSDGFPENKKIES

Compound: Nc1nc2c(ncn2[C@@H]2O[C@H](COP(=O)(O)OP(=O)(O)OP(=O)(O)O)[C@@H](O)[C@H]2O)c(=O)[nH]1 [guanosine triphosphate]
Experiment: NP40-soluble protein abundance relative to vehicle (solubility fold change) (ratio); higher = more soluble protein in presence of GTP
Procedure: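 Solubility proteome profiling in Jurkat crude lysate. Lysate was treated with Mg-GTP (0.1-10 mM) for 10 min at room temperature and 3 min at 37 °C, then solubilised with 0.8% NP40 and benzonase, followed by ultracentrifugation. Proteins were quantified by TMT10 LC-MS/MS; the value is the NP40-soluble abundance relative to the NP40-processed vehicle, from 3 independent experiments.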

| Target | NP40-soluble protein abundance (concentration: 0.1mM) | NP40-soluble protein abundance (concentration: 0.5mM) | NP40-soluble protein abundance (concentration: 1mM) | NP40-soluble protein abundance (concentration: 2mM) | NP40-soluble protein abundance (concentration: 4mM) | NP40-soluble protein abundance (concentration: 6mM) | NP40-soluble protein abundance (concentration: 8mM) | NP40-soluble protein abundance (concentration: 10mM) |
| --- | --- | --- | --- | --- | --- | --- | --- | --- |
| SMAP2 (UniProt Q8WU79) | 0.953 ± 0.041 | 0.93 ± 0.059 | 0.952 ± 0.065 | 0.88 ± 0.086 | 0.868 ± 0.069 | 0.875 ± 0.071 | 0.905 ± 0.072 | 0.879 ± 0.067 |
| DHX37 (UniProt Q8IY37) | 1.056 ± 0.0078 | 1.15 ± 0.043 | 1.14 ± 0.063 | 1.19 ± 0.098 | 1.28 ± 0.088 | 1.26 ± 0.13 | 1.44 ± 0.24 | 1.48 ± 0.2 |
| UniProt Q8TED0 and related entries | 1.17 ± 0.14 | 1.14 ± 0.2 | 1.13 ± 0.062 | 1.23 ± 0.12 | 1.42 ± 0.22 | 1.51 ± 0.2 | 1.7 ± 0.19 | 1.69 ± 0.32 |
| UniProt Q8NBJ5 | 1.026 ± 0.0027 | 1.02 ± 0.021 | 0.922 ± 0.018 | 0.894 ± 0.033 | 0.909 ± 0.026 | 0.908 ± 0.015 | 0.903 ± 0.023 | 0.862 ± 0.055 |
| DTX3L (UniProt Q8TDB6) | 1.04 ± 0.03 | 1.055 ± 0.009 | 1.04 ± 0.025 | 1.03 ± 0.024 | 1.08 ± 0.018 | 1.09 ± 0.016 | 1.12 ± 0.028 | 1.1 ± 0.037 |
